# Laboratory results taken from the supplement of paper PMC8728848.
# The other results are listed elsewhere or left out.
# B1: AT3G09350(27) (Arabidopsis thaliana), Q84J81 (protein)
# chain: MAKDGPNWDGLLKWSLSHADGTRPTRQLSEEDRKWFMEAMQSQTVDVVKRMKEITLVMQTPEQVLVEHGVTPEDIQDLLDELQEHVESIDMANDLHSIGGLVPLLSFLKNSHANIRAKAADVVSTIVQNNPRSQELVMETNALESLLSNFTSDTDIHARTQALGAISSLIRHNKPGVTAFKLANGYAGLRDALASDSVRFQRKALNLLQYLLQEDDSDRSIATGLGFPRVMMHLASSDDAEIREAALRGLLELSREKNDGSSSIDKSDEKLRQLLEERIKGITLMSQEDLETVKEERQLVDLLWSICYNEPSSLREKGLVVLPGEDALPPDVASKLFEPPLRASAANRNATEKKDEPMKLLGP
# Legend:
# Assay in all cases: glycan array binding signal (z-score within array); higher = stronger binding
# Conditions in all cases: glycan notation: IUPAC condensed, linker removed
# [1] = target: Neu5Ac(a2-6)Gal(b1-4)GlcNAc(b1-2)Man(a1-3)[GlcNAc(b1-4)][Neu5Ac(a2-6)Gal(b1-4)GlcNAc(b1-2)Man(a1-6)]Man(b1-4)GlcNAc(b1-4)GlcNAc
# Summary of the method: (§1)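 The binding signal is a Z-score computed within each array. Data were drawn from 3228 arrays in the Consortium for Functional Glycomics database, restricted to those with a known protein sequence. Scores were averaged over arrays of the same protein sequence at different concentrations or buffers, and over linkers, and negative values can be taken as non-binding.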
# [2] = target: Neu5Ac(a2-6)Gal(b1-4)GlcNAc(b1-2)Man(a1-3)[Man(a1-6)]Man(b1-4)GlcNAc(b1-4)GlcNAc
# Summary of the method: as §1
# [3] = target: Neu5Ac(a2-6)Gal(b1-4)GlcNAc(b1-2)Man(a1-3)[Neu5Ac(a2-3)Gal(b1-4)GlcNAc(b1-2)Man(a1-6)]Man(b1-4)GlcNAc(b1-4)GlcNAc
# Summary of the method: as §1
# [4] = target: Neu5Ac(a2-6)Gal(b1-4)GlcNAc(b1-2)Man(a1-3)[Neu5Ac(a2-6)Gal(b1-4)GlcNAc(b1-2)Man(a1-6)]Man(b1-4)GlcNAc(b1-4)GlcNAc
# Summary of the method: as §1
# [5] = target: Neu5Ac(a2-6)Gal(b1-4)GlcNAc(b1-2)Man(a1-3)[Neu5Ac(a2-6)Gal(b1-4)GlcNAc(b1-2)Man(a1-6)]Man(b1-4)GlcNAc(b1-4)[Fuc(a1-6)]GlcNAc
# Summary of the method: as §1
# [6] = target: Neu5Ac(a2-6)Gal(b1-4)GlcNAc(b1-2)Man(a1-6)Man(b1-4)GlcNAc(b1-4)GlcNAc
# Summary of the method: as §1
# [7] = target: Neu5Ac(a2-6)Gal(b1-4)GlcNAc(b1-2)Man(a1-6)[Gal(b1-4)GlcNAc(b1-2)Man(a1-3)]Man(b1-4)GlcNAc(b1-4)GlcNAc
# Summary of the method: as §1
# [8] = target: Neu5Ac(a2-6)Gal(b1-4)GlcNAc(b1-2)Man(a1-6)[GlcNAc(b1-2)Man(a1-3)]Man(b1-4)GlcNAc(b1-4)GlcNAc
# Summary of the method: as §1
# [9] = target: Neu5Ac(a2-6)Gal(b1-4)GlcNAc(b1-2)Man(a1-6)[Man(a1-3)]Man(b1-4)GlcNAc(b1-4)GlcNAc
# Summary of the method: as §1
# [10] = target: Neu5Ac(a2-6)Gal(b1-4)GlcNAc(b1-2)[Neu5Ac(a2-6)Gal(b1-4)GlcNAc(b1-4)]Man(a1-3)[GlcNAc(b1-4)][Neu5Ac(a2-6)Gal(b1-4)GlcNAc(b1-2)[Neu5Ac(a2-6)Gal(b1-4)GlcNAc(b1-6)]Man(a1-6)]Man(b1-4)GlcNAc(b1-4)GlcNAc
# Summary of the method: as §1
# [11] = target: Neu5Ac(a2-6)Gal(b1-4)GlcNAc(b1-2)[Neu5Ac(a2-6)Gal(b1-4)GlcNAc(b1-4)]Man(a1-3)[GlcNAc(b1-4)][Neu5Ac(a2-6)Gal(b1-4)GlcNAc(b1-4)Man(a1-6)]Man(b1-4)GlcNAc(b1-4)GlcNAc
# Summary of the method: as §1
# [12] = target: Neu5Ac(a2-6)Gal(b1-4)GlcNAc(b1-2)[Neu5Ac(a2-6)Gal(b1-4)GlcNAc(b1-6)]Man(a1-6)[Neu5Ac(a2-6)Gal(b1-4)GlcNAc(b1-2)Man(a1-3)][GlcNAc(b1-4)]Man(b1-4)GlcNAc(b1-4)GlcNAc
# Summary of the method: as §1
# [13] = target: Neu5Ac(a2-6)Gal(b1-4)GlcNAc(b1-3)Gal(b1-3)GlcNAc
# Summary of the method: as §1
# [14] = target: Neu5Ac(a2-6)Gal(b1-4)GlcNAc(b1-3)Gal(b1-4)GlcNAc
# Summary of the method: as §1
# [15] = target: Neu5Ac(a2-6)Gal(b1-4)GlcNAc(b1-3)Gal(b1-4)GlcNAc(b1-2)Man(a1-3)[Neu5Ac(a2-6)Gal(b1-4)GlcNAc(b1-3)Gal(b1-4)GlcNAc(b1-2)Man(a1-6)]GalNAc
# Summary of the method: as §1
# [16] = target: Neu5Ac(a2-6)Gal(b1-4)GlcNAc(b1-3)Gal(b1-4)GlcNAc(b1-3)Gal(b1-4)GlcNAc
# Summary of the method: as §1
# [17] = target: Neu5Ac(a2-6)Gal(b1-4)GlcNAc(b1-3)Gal(b1-4)GlcNAc(b1-3)Gal(b1-4)GlcNAc(b1-2)Man(a1-3)[Neu5Ac(a2-6)Gal(b1-4)GlcNAc(b1-3)Gal(b1-4)GlcNAc(b1-3)Gal(b1-4)GlcNAc(b1-2)Man(a1-6)]GalNAc
# Summary of the method: as §1
# [18] = target: Neu5Ac(a2-6)Gal(b1-4)GlcNAc(b1-3)Gal(b1-4)GlcNAc(b1-3)GalNAc
# Summary of the method: as §1
# [19] = target: Neu5Ac(a2-6)Gal(b1-4)GlcNAc(b1-3)Gal(b1-4)GlcNAc(b1-3)[Neu5Ac(a2-6)Gal(b1-4)GlcNAc(b1-3)Gal(b1-4)GlcNAc(b1-6)]GalNAc
# Summary of the method: as §1
# [20] = target: Neu5Ac(a2-6)Gal(b1-4)GlcNAc(b1-3)Gal(b1-4)GlcNAc(b1-6)[Gal(b1-3)]GalNAc
# Summary of the method: as §1
# [21] = target: Neu5Ac(a2-6)Gal(b1-4)GlcNAc(b1-3)Gal(b1-4)[Fuc(a1-3)]GlcNAc(b1-3)Gal(b1-4)[Fuc(a1-3)]GlcNAc
# Summary of the method: as §1
# [22] = target: Neu5Ac(a2-6)Gal(b1-4)GlcNAc(b1-3)GalNAc
# Summary of the method: as §1
# [23] = target: Neu5Ac(a2-6)Gal(b1-4)GlcNAc(b1-3)[Neu5Ac(a2-6)Gal(b1-4)GlcNAc(b1-6)]GalNAc
# Summary of the method: as §1
# [24] = target: Neu5Ac(a2-6)Gal(b1-4)GlcNAc(b1-6)GalNAc
# Summary of the method: as §1
# [25] = target: Neu5Ac(a2-6)Gal(b1-4)GlcNAc(b1-6)[Gal(b1-3)GlcNAc(b1-3)]Gal(b1-4)Glc
# Summary of the method: as §1
# [26] = target: Neu5Ac(a2-6)Gal(b1-4)GlcNAc(b1-6)[Gal(b1-3)]GalNAc
# Summary of the method: as §1
# [27] = target: Neu5Ac(a2-6)Gal(b1-4)GlcNAc6S
# Summary of the method: as §1
# Neu5Ac(a2-6)GalNAc = target: Neu5Ac(a2-6)GalNAc
# Summary of the method: as §1
# [28] = target: Neu5Ac(a2-6)GalNAc(b1-4)GlcNAc
# Summary of the method: as §1
# [29] = target: Neu5Ac(a2-6)GalNAc(b1-4)GlcNAc6S
# Summary of the method: as §1
# [30] = target: Neu5Ac(a2-6)GlcNAc(b1-4)GlcNAc
# Summary of the method: as §1
binder,measurement,setting,value
B1,glycan array binding signal (z-score),[1],-0.201
same,glycan array binding signal (z-score),[2],-0.115
same,glycan array binding signal (z-score),[3],-0.453
same,glycan array binding signal (z-score),[4],0.535
same,glycan array binding signal (z-score),[5],-0.493
same,glycan array binding signal (z-score),[6],-0.555
same,glycan array binding signal (z-score),[7],-0.867
same,glycan array binding signal (z-score),[8],-0.127
same,glycan array binding signal (z-score),[9],-0.534
same,glycan array binding signal (z-score),[10],-0.767
same,glycan array binding signal (z-score),[11],1.22
same,glycan array binding signal (z-score),[12],0.628
same,glycan array binding signal (z-score),[13],-0.492
same,glycan array binding signal (z-score),[14],-0.435
same,glycan array binding signal (z-score),[15],-0.335
same,glycan array binding signal (z-score),[16],0.134
same,glycan array binding signal (z-score),[17],1.2
same,glycan array binding signal (z-score),[18],0.239
same,glycan array binding signal (z-score),[19],-0.252
same,glycan array binding signal (z-score),[20],-0.005
same,glycan array binding signal (z-score),[21],-0.844
same,glycan array binding signal (z-score),[22],-0.821
same,glycan array binding signal (z-score),[23],-0.304
same,glycan array binding signal (z-score),[24],-0.618
same,glycan array binding signal (z-score),[25],0.201
same,glycan array binding signal (z-score),[26],-0.158
same,glycan array binding signal (z-score),[27],-0.24
same,glycan array binding signal (z-score),Neu5Ac(a2-6)GalNAc,-0.655
same,glycan array binding signal (z-score),[28],-0.882
same,glycan array binding signal (z-score),[29],-0.91
same,glycan array binding signal (z-score),[30],-0.721

# For convenience, part of the list above.
binder,measurement,setting,value
B1,glycan array binding signal (z-score),[5],-0.493
same,glycan array binding signal (z-score),[6],-0.555
